# Laboratory results as given in the supplement of paper PMC8728848.
# The list shows a part of the results.
# Tests used:
# Test in all cases: glycan array binding signal (z-score within array); higher = stronger binding
# Details in all cases: glycan notation: IUPAC condensed, linker removed
# [1] = target: Neu5Ac(a2-6)Gal(b1-4)GlcNAc(b1-6)GalNAc
# Method in brief: (§1)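 The binding signal is a Z-score computed within each array. Data were drawn from 3228 arrays in the Consortium for Functional Glycomics database, restricted to those with a known protein sequence. Scores were averaged over arrays of the same protein sequence at different concentrations or buffers, and over linkers, and negative values can be taken as non-binding.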
# [2] = target: Neu5Ac(a2-6)Gal(b1-4)GlcNAc(b1-6)[Gal(b1-3)GlcNAc(b1-3)]Gal(b1-4)Glc
# Method in brief: as §1
# [3] = target: Neu5Ac(a2-6)Gal(b1-4)GlcNAc(b1-6)[Gal(b1-3)]GalNAc
# Method in brief: as §1
# [4] = target: Neu5Ac(a2-6)Gal(b1-4)GlcNAc6S
# Method in brief: as §1
# [5] = target: Neu5Ac(a2-6)GalNAc
# Method in brief: as §1
# [6] = target: Neu5Ac(a2-6)GalNAc(b1-4)GlcNAc
# Method in brief: as §1
# [7] = target: Neu5Ac(a2-6)GalNAc(b1-4)GlcNAc6S
# Method in brief: as §1
# [8] = target: Neu5Ac(a2-6)GlcNAc(b1-4)GlcNAc
# Method in brief: as §1
# [9] = target: Neu5Ac(a2-6)GlcNAc(b1-4)GlcNAc(b1-4)GlcNAc
# Method in brief: as §1
# [10] = target: Neu5Ac(a2-8)Neu5Ac
# Method in brief: as §1
# [11] = target: Neu5Ac(a2-8)Neu5Ac(a2-3)Gal(b1-3)GalNAc(b1-4)[Neu5Ac(a2-3)]Gal(b1-4)Glc
# Method in brief: as §1
# [12] = target: Neu5Ac(a2-8)Neu5Ac(a2-3)Gal(b1-3)GalNAc(b1-4)[Neu5Ac(a2-8)Neu5Ac(a2-3)]Gal(b1-4)Glc
# Method in brief: as §1
# [13] = target: Neu5Ac(a2-8)Neu5Ac(a2-3)Gal(b1-4)Glc
# Method in brief: as §1
# [14] = target: Neu5Ac(a2-8)Neu5Ac(a2-3)Gal(b1-4)GlcNAc
# Method in brief: as §1
# [15] = target: Neu5Ac(a2-8)Neu5Ac(a2-3)[Gal(b1-3)GalNAc(b1-4)]Gal(b1-4)Glc
# Method in brief: as §1
# [16] = target: Neu5Ac(a2-8)Neu5Ac(a2-3)[GalNAc(b1-4)]Gal(b1-4)Glc
# Method in brief: as §1
# [17] = target: Neu5Ac(a2-8)Neu5Ac(a2-8)Neu5Ac
# Method in brief: as §1
# [18] = target: Neu5Ac(a2-8)Neu5Ac(a2-8)Neu5Ac(a2-3)Gal(b1-4)Glc
# Method in brief: as §1
# [19] = target: Neu5Ac(a2-8)Neu5Ac(a2-8)Neu5Ac(a2-3)[Gal(b1-3)GalNAc(b1-4)]Gal(b1-4)Glc
# Method in brief: as §1
# [20] = target: Neu5Ac(a2-8)Neu5Ac(a2-8)Neu5Ac(a2-3)[GalNAc(b1-4)]Gal(b1-4)Glc
# Method in brief: as §1
# [21] = target: Neu5Ac(a2-8)Neu5Ac(a2-8)Neu5Ac(a2-8)Neu5Ac(a2-3)[GalNAc(b1-4)]Gal(b1-4)Glc
# Method in brief: as §1
# [22] = target: Neu5Ac(a2-8)Neu5Gc(a2-3)Gal(b1-4)GlcNAc
# Method in brief: as §1
# [23] = target: Neu5Ac(b2-6)Gal(b1-4)GlcNAc
# Method in brief: as §1
# [24] = target: Neu5Ac(b2-6)GalNAc
# Method in brief: as §1
# [25] = target: Neu5Ac9Ac(a2-3)Gal(b1-3)GlcNAc
# Method in brief: as §1
# [26] = target: Neu5Ac9Ac(a2-3)Gal(b1-4)GlcNAc
# Method in brief: as §1
# [27] = target: Neu5Ac9Ac(a2-6)Gal(b1-4)GlcNAc
# Method in brief: as §1
# [28] = target: Neu5Gc(a2-3)Gal(b1-3)GlcNAc
# Method in brief: as §1
# [29] = target: Neu5Gc(a2-3)Gal(b1-3)[Fuc(a1-4)]GlcNAc
# Method in brief: as §1
# [30] = target: Neu5Gc(a2-3)Gal(b1-4)Glc
# Method in brief: as §1
# [31] = target: Neu5Gc(a2-3)Gal(b1-4)GlcNAc
# Method in brief: as §1
# [32] = target: Neu5Gc(a2-3)Gal(b1-4)GlcNAc(b1-3)Gal(b1-4)GlcNAc(b1-2)Man(a1-3)[Neu5Gc(a2-3)Gal(b1-4)GlcNAc(b1-3)Gal(b1-4)GlcNAc(b1-2)Man(a1-6)]Man(b1-4)GlcNAc(b1-4)GlcNAc
# Method in brief: as §1
# [33] = target: Neu5Gc(a2-3)Gal(b1-4)[Fuc(a1-3)]GlcNAc
# Method in brief: as §1
# [34] = target: Neu5Gc(a2-6)Gal(b1-4)GlcNAc
# Method in brief: as §1
# [35] = target: Neu5Gc(a2-6)GalNAc
# Method in brief: as §1
# [36] = target: Neu5Gc(a2-8)Neu5Ac(a2-3)Gal(b1-4)GlcNAc
# Method in brief: as §1
# [37] = target: Neu5Gc(a2-8)Neu5Gc(a2-3)Gal(b1-4)GlcNAc
# Method in brief: as §1
# [38] = target: Neu5Gc(a2-8)Neu5Gc(a2-3)Gal(b1-4)GlcNAc(b1-3)Gal(b1-4)GlcNAc
# Method in brief: as §1
binder,measurement,setting,value
SJCP1084 (Schistosoma japonicum) (protein) MRIINLVIISTALLLINLLQTKSQANGEDTKNGTPDDPGLTKSTELKVEVQALLKDKKTNMRVKWNENLLDNTKPEYHNLRDEACELLLQIVRSVVPLSQDDGECKDVTFTKYVVGTKDGAVNVKLTITFKDSVAINQKPMDLKLKLENDFKNLQSESTLKATKPTFTVKVEKRLIPISKPQTTPPTTAKNDASKENVGDIGGEDSTVPTAAPATAASANEEKDEGDKDNKDSQHPNVLTSNVNDRNLIIALVALMILAIGVALTAAVKQR,glycan array binding signal (z-score),[1],-0.04
same,glycan array binding signal (z-score),[2],-0.969
same,glycan array binding signal (z-score),[3],-0.115
same,glycan array binding signal (z-score),[4],-1.81
same,glycan array binding signal (z-score),[5],0.704
same,glycan array binding signal (z-score),[6],-1.02
same,glycan array binding signal (z-score),[7],-0.632
same,glycan array binding signal (z-score),[8],0.142
same,glycan array binding signal (z-score),[9],-0.691
same,glycan array binding signal (z-score),[10],-0.077
same,glycan array binding signal (z-score),[11],1.24
same,glycan array binding signal (z-score),[12],-0.517
same,glycan array binding signal (z-score),[13],1.25
same,glycan array binding signal (z-score),[14],-1.65
same,glycan array binding signal (z-score),[15],-0.075
same,glycan array binding signal (z-score),[16],0.433
same,glycan array binding signal (z-score),[17],0.443
same,glycan array binding signal (z-score),[18],0.152
same,glycan array binding signal (z-score),[19],-0.802
same,glycan array binding signal (z-score),[20],-0.842
same,glycan array binding signal (z-score),[21],-0.607
same,glycan array binding signal (z-score),[22],-0.605
same,glycan array binding signal (z-score),[23],-0.022
same,glycan array binding signal (z-score),[24],-0.824
same,glycan array binding signal (z-score),[25],1.34
same,glycan array binding signal (z-score),[26],-1.05
same,glycan array binding signal (z-score),[27],0.524
same,glycan array binding signal (z-score),[28],-0.767
same,glycan array binding signal (z-score),[29],2.57
same,glycan array binding signal (z-score),[30],-0.244
same,glycan array binding signal (z-score),[31],-0.592
same,glycan array binding signal (z-score),[32],-0.922
same,glycan array binding signal (z-score),[33],0.638
same,glycan array binding signal (z-score),[34],-0.032
same,glycan array binding signal (z-score),[35],1.07
same,glycan array binding signal (z-score),[36],-0.618
same,glycan array binding signal (z-score),[37],-1.21
same,glycan array binding signal (z-score),[38],-1.55

# For reference, some entries already given.
binder,measurement,setting,value
SJCP1084 (Schistosoma japonicum) (protein) MRIINLVIISTALLLINLLQTKSQANGEDTKNGTPDDPGLTKSTELKVEVQALLKDKKTNMRVKWNENLLDNTKPEYHNLRDEACELLLQIVRSVVPLSQDDGECKDVTFTKYVVGTKDGAVNVKLTITFKDSVAINQKPMDLKLKLENDFKNLQSESTLKATKPTFTVKVEKRLIPISKPQTTPPTTAKNDASKENVGDIGGEDSTVPTAAPATAASANEEKDEGDKDNKDSQHPNVLTSNVNDRNLIIALVALMILAIGVALTAAVKQR,glycan array binding signal (z-score),[35],1.07
same,glycan array binding signal (z-score),[36],-0.618
